Binding data for four substances are collected here from paper PMC7495420.

Sequences of proteins named here, by UniProt entry; tags and fusion partners are left off.
UniProt Q92766: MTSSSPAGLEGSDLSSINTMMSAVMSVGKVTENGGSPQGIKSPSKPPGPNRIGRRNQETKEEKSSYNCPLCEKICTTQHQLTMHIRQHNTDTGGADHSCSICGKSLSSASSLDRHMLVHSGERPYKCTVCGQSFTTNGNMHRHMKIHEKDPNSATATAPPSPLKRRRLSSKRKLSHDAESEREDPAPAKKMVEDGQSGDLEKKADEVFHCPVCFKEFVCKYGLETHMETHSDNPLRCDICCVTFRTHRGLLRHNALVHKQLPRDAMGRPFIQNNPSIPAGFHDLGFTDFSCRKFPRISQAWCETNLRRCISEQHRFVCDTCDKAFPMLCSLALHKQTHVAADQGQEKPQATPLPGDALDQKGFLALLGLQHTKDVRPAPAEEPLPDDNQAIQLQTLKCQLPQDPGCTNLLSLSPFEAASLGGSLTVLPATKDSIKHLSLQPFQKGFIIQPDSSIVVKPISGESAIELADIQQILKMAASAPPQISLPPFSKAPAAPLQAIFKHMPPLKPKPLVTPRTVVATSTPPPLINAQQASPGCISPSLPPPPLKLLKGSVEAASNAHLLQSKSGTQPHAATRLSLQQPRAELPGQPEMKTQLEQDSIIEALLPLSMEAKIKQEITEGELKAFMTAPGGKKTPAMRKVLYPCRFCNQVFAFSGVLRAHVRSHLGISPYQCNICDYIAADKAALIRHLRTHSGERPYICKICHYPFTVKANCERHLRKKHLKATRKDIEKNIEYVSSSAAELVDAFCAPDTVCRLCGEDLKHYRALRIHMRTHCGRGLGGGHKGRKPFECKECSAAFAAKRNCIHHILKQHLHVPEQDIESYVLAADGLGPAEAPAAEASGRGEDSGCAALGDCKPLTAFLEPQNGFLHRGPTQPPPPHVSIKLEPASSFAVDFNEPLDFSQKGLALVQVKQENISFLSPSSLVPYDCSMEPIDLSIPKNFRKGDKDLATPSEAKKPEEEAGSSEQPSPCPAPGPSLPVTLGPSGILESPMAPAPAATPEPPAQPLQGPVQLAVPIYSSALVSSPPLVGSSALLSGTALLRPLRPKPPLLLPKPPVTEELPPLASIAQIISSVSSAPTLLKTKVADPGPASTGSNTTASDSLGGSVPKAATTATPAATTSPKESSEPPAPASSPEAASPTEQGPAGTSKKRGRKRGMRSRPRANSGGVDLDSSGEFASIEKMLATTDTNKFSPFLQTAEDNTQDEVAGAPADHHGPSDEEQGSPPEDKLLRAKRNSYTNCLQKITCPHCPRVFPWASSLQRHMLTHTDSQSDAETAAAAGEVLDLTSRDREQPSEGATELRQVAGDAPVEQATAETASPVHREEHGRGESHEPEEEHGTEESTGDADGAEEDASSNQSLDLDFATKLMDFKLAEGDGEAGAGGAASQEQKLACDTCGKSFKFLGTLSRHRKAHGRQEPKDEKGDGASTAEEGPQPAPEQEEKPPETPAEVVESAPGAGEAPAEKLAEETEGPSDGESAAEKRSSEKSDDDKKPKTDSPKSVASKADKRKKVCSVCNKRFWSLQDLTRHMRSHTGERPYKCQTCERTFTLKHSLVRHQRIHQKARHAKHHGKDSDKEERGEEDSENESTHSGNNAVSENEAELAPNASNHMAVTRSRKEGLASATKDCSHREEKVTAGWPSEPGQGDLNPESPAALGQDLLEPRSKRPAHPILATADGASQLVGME
UniProt Q13547: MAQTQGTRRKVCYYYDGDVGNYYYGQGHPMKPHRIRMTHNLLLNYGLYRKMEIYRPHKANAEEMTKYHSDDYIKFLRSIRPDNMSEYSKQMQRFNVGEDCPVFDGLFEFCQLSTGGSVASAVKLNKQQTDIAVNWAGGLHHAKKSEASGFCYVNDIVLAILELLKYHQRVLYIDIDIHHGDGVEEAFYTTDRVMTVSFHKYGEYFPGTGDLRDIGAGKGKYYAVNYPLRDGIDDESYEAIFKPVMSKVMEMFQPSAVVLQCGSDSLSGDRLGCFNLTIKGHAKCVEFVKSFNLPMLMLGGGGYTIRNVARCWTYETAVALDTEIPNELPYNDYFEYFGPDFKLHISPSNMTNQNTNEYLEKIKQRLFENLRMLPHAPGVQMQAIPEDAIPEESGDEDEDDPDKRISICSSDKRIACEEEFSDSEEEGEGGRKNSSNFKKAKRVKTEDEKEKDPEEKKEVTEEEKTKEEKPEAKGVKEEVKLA
UniProt Q92769: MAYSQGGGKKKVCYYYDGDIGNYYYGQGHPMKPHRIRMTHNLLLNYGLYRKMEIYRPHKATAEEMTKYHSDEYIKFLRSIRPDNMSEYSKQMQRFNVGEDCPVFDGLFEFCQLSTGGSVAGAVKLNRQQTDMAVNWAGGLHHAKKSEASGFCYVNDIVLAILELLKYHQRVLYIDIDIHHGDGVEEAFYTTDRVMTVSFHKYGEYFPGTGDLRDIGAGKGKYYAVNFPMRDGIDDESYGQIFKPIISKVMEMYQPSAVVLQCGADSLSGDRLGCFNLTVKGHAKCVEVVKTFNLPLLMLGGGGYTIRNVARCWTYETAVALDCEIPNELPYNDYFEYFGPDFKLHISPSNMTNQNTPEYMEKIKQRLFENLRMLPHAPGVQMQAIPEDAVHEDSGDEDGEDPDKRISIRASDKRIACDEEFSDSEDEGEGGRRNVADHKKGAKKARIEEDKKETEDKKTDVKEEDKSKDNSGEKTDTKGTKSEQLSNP
UniProt Q9UKL0: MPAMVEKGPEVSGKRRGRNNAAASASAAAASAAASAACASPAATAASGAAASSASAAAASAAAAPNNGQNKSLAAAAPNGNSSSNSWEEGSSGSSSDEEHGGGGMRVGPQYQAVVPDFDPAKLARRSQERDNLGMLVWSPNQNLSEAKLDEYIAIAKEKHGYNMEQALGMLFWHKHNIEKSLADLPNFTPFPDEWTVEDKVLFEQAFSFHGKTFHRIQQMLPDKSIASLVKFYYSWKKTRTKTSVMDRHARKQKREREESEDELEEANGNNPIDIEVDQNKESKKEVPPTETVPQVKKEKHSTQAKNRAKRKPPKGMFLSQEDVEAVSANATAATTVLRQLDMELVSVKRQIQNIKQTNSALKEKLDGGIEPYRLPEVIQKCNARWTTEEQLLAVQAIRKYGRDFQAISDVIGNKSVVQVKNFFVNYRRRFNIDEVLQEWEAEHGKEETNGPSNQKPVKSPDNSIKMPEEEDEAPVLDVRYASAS

Test [1] concerns the target VC-RREB1 (pCMV-HA-VC155-RREB1) (UniProt Q92766). Briefly: split reporter; BiFC in HEK293 cells: VC155-RREB1 with VN173-tagged partners, Venus fluorescence by confocal imaging.
The target of test [2] is endogenous RREB1 (all three isoforms) (human) (UniProt Q92766). The experiment in a line: co-sedimentation; glycerol gradient (10–60%) ultracentrifugation of HEK293 extract at 135,000 g for 18 h at 4 °C; fractions analysed by western blot for endogenous proteins. For orientation: A western blot detects proteins with antibodies after separation by electrophoresis.

No constants are given. Whether binding was seen depends on the method and setting. In cells and extracts the contact can be indirect. Some binding calls cover weakened binding; strength is not graded here.

In the case of “VN-HDAC1 (pCMV-HA-VN173-HDAC1) (from UniProt Q13547 1-482)”, in test [1], the binding entry was “binds”.

Take “endogenous HDAC2 (from UniProt Q92769 1-488)”: in test [2], the binding result is given as “binds”.

Take “endogenous RCOR1 (from UniProt Q9UKL0 1-485)”: the binding result in test [2] was “binds”.

With “endogenous HDAC1 (from UniProt Q13547 1-482)”, the binding entry in test [2] was “binds”.
